# Measurements reported in PubChem BioAssay AID652272 (Drosophila RNAi Screening Center, 2013).
# Test: 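Genome-wide knock-down search for components of Hedgehog signalling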 (primary screen)
# System: Drosophila clone 8 (Cl8) cells
# Reagents: long dsRNA against Drosophila genes
# Read-out: 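Plate reader light from a firefly reporter under a ptc promoter fragment that responds to Hedgehog, with Renilla light as transfection reference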
# Reading the numbers: firefly Hh reporter signal: higher = more ptc reporter light; Renilla reference signal: higher = more Renilla control light
# Active means: 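Hit when the z-score averaged over two replicates is under -2 or over +3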
# Calls: active = hit: reporter lowered or raised; inactive = not a hit
# The deposit covers about 21,000 reagents; below is a random part of those that have a named target and a result. In the full data, 503 (2.4%) are marked active. 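Raw plate light values, not normalised; calls rest on replicate z-scores that were not deposited; hits include reporter decreases as well as increases.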 Entries without a mark were called inactive. Reagents against one gene are numbered here. Names joined by + are all predicted targets of the reagent. The record does not give: the amount of reagent, the time to read-out.
Gene,reagent,"firefly Hh reporter signal, replicate 1","firefly Hh reporter signal, replicate 2","firefly Hh reporter signal, replicate 3","Renilla reference signal, replicate 1","Renilla reference signal, replicate 2"
Art7 (Arginine methyltransferase 7),1,73078,49826,,1269,4229
TwdlY (TweedleY),1,7.23e5,3.37e5,,42640,8693
CG30371,1,80196,48011,,2184,3516
wrd (well-rounded),1,2.11e5 (active),25491,,15760,1392
wrd (well-rounded),2,6.19e5,1.10e5,,31157,2704
CG31633,1,1.22e5,87520,,3293,8435
BobA,1,1.27e5,,,1856,3053
Map60 (Microtubule-associated protein 60),1,97184,91152,,4109,3714
THG (tRNA-histidine guanylyltransferase),1,1.36e5,72839,,4032,6772
Gr2a (Gustatory receptor 2a),1,1.02e5,3.25e5,,3763,12347
Gr43a (Gustatory receptor 43a),1,1.04e5,47589,,2508,3996
RpL34b (Ribosomal protein L34b),1,65895 (active),83106,,2908,4157
fred (friend of echinoid),1,1.61e5,69089,,4393,6673
fred (friend of echinoid),2,1.82e5,5.31e5,81232,5014,31115
fred (friend of echinoid),3,82816,50807,,2086,4876
fred (friend of echinoid),4,95776,70758,,2848,6274
CG13465,1,1.46e5,,,2005,3811
aux (auxilin),1,1.49e5,1.37e5,,6210,5273
HDAC6 (Histone deacetylase 6),1,91853,1.09e5,,2016,2210
CG10154,1,24345,30760,56106,2592,3446
CG17221,1,1.18e5,59456,,2816,5451
Cyp6a15Psi (pseudo),1,1.00e5,47046,,2411,3921
CG32213 + CG12519 + 825-Oak + 1 more,1,7.16e5,2.57e5,1.17e5,5130,6000

A stretch of the results above:
Gene,reagent,"firefly Hh reporter signal, replicate 1","firefly Hh reporter signal, replicate 2","firefly Hh reporter signal, replicate 3","Renilla reference signal, replicate 1","Renilla reference signal, replicate 2"
THG (tRNA-histidine guanylyltransferase),1,1.36e5,72839,,4032,6772
Gr2a (Gustatory receptor 2a),1,1.02e5,3.25e5,,3763,12347
